# PubChem BioAssay AID504467 (National Center for Advancing Translational Sciences (NCATS), 2011)
# Screen size: about 330,000 compounds; about 7,700 (2.3%) were called active. The shares of active, inactive and inconclusive entries below differ from those in the screen. Calls follow the shape of the dose curve; as a rule, active = well fitted inhibition curve with a large enough effect; inconclusive = small, poorly fitted or top-dose-only effect, or effect the other way; inactive = flat fitted curve, though single readings scatter. Where the call is inconclusive, the potency comes from a doubtful curve fit.
# Assay: qHTS screen for small molecules that inhibit ELG1-dependent DNA repair in human embryonic kidney (HEK293T) cells expressing luciferase-tagged ELG1; also: nearly all actives have a fitted effect of over 55% in size
# Conditions: HEK293T ELG1-luciferase reporter, luminescence, 16 h, DNA damage induced by 5-fluorouridine; series mostly up to 46.1 µM
# Outline: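 5-Fluorouridine DNA damage + compound/DMSO, 2,000 cells/well, 16 h, 37 °C/5% CO2. ONE-Glo, 30 min RT, luminescence. Readout = decrease in reporter signal.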
# Potency is read from the fitted curve at half-maximal effect.
row,Compound,Potency
1,O=C(O)c1ccc2[nH]c3c(c2c1)CCCC3,inactive
2,COc1ccc(C(=O)Nc2ccc(C)c(S(=O)(=O)N3CCCCCC3)c2)cc1,"inconclusive: 18.3 µM [inhibitor, single point]"
3,Cc1ccc(Cl)c(NC(=O)CCl)c1Cl,inactive
4,CCCCNC(=O)C(Sc1ccccc1)c1ccccc1 (configuration not stated),inactive
5,Cc1cc(N2CCN(C)CC2)nc2ccc(NC(=O)c3ccc4c(c3)OCO4)cc12,"inconclusive: 23.1 µM [inhibitor, partial curve]"
6,c1ccc2c(NCC3CCCO3)nc(-c3ccncc3)nc2c1 (configuration not stated),active: 18.4 µM
7,Cn1c(C(=O)N2CCCC(C(=O)NCc3cccs3)C2)cc2sccc21 (configuration not stated),"inconclusive: 20.6 µM [inhibitor, single point]"
8,Cc1onc(-c2c(F)cccc2Cl)c1C(=O)OCC(=O)c1c(N)n(C)c(=O)n(C)c1=O,"inconclusive: 14.6 µM [inhibitor, partial curve]"
9,CC(=NCCCn1ccnc1)c1c(-c2ccccc2)[nH]n(-c2nc3ccccc3s2)c1=O,"inconclusive: 20.6 µM [inhibitor, partial curve]"
10,CC(=O)Nc1ccc(S(=O)(=O)Nc2nc(-c3ccc(C(C)(C)C)cc3)cs2)cc1,inactive
11,CC(C)C(C(=O)OCC(=O)c1ccc2c(c1)NC(=O)CO2)N1C(=O)c2ccccc2C1=O (configuration not stated),"inconclusive: 29.1 µM [inhibitor, partial curve, poor fit]"
12,Cc1cc(-c2nn3c(-c4ccccc4)nnc3s2)c2ccccc2n1,inactive
13,CC1(C)Cc2c(cnn2-c2cccc(F)c2)C(NC(=O)C2CCOCC2)C1 (configuration not stated),inactive
14,O=c1[nH]c(C2CCN(S(=O)(=O)c3ccc4c(c3)OCCO4)CC2)nc2c1nnn2Cc1ccccc1F,"inconclusive: 32.6 µM [inhibitor, single point]"
15,CCOc1ccc(-c2nc(CSc3nnc(N)s3)cs2)cc1,"inconclusive: 5.17 µM [activator, partial curve]"
16,COc1ccccc1N1C(=O)CC(Sc2nccc(C)n2)C1=O (configuration not stated),inactive
17,CC1OC(Oc2c(-c3cc(O)c(O)c(O)c3)oc3cc(O)cc(O)c3c2=O)C(O)C(O)C1O (configuration not stated),inactive
18,Cc1cccc(C(=O)Nc2cccc(C(=O)N3CCOCC3)c2)c1,"inconclusive: 23.1 µM [activator, partial curve]"
19,CC1=C(C(=O)Nc2ccccc2C)C(c2ccc(C)o2)N2C(=O)CSC2=N1 (configuration not stated),"inconclusive: 32.6 µM [activator, partial curve, poor fit]"
20,Cc1ccc(S(=O)(=O)N(CC(=O)N2CCN(c3ccccc3F)CC2)C2CCCCC2)cc1,"inconclusive: 25.9 µM [inhibitor, single point]"
21,Oc1c(C=Nc2ccc(Cl)cn2)sc2ccccc12,"inconclusive: 6.51 µM [activator, partial curve]"
22,CN(NC(=O)c1cccc(Cl)c1)c1nc(-c2ccccc2)nnc1C(F)(F)F,"inconclusive: 23.1 µM [inhibitor, single point]"
23,COc1cc(/C=C/c2ccc3cccc(O)c3n2)cc(Br)c1OC,"inconclusive: 18.3 µM [activator, partial curve]"
24,C=CCOc1c(Cl)cc(C(=S)N2CCCC2)cc1OCC,inactive

# Quoted at random: two compounds from above.
row,Compound,Potency
23,COc1cc(/C=C/c2ccc3cccc(O)c3n2)cc(Br)c1OC,"inconclusive: 18.3 µM [activator, partial curve]"
1,O=C(O)c1ccc2[nH]c3c(c2c1)CCCC3,inactive

# Exported tab-delimited: entries from further up
row	Compound	Potency
19	CC1=C(C(=O)Nc2ccccc2C)C(c2ccc(C)o2)N2C(=O)CSC2=N1 (configuration not stated)	inconclusive: 32.6 µM [activator, partial curve, poor fit]
20	Cc1ccc(S(=O)(=O)N(CC(=O)N2CCN(c3ccccc3F)CC2)C2CCCCC2)cc1	inconclusive: 25.9 µM [inhibitor, single point]

# Next entries

row,Compound,Potency
1,CCn1c(C(C)NC(C)=O)nc2ccccc21 (configuration not stated),inactive
2,CN1CCN(CCCNC(=O)c2ccc(NC(=O)C3=CSCCO3)cc2)CC1,"inconclusive: 2.91 µM [activator, full curve, poor fit]"
3,COc1cccc(-c2nc(CS(=O)(=O)CC(=O)NCCc3ccc(OC)c(OC)c3)c(C)o2)c1,inactive
4,O=C(O)c1cccc(NC(=O)c2cccc(S(=O)(=O)N3CCCCC3)c2)c1,"inconclusive: 18.4 µM [activator, single point]"
5,O=C(O)c1ccccc1C(=O)Nc1c(-c2ccccc2)nc2ccccn12,inactive
6,C=CCC1NS(=O)(=O)OCC1C(C)C (configuration not stated),inactive
7,CCC1=Nc2cc(C(=O)NCCCN3CCOCC3)ccc2Sc2ccccc21,inactive
8,CC(=O)C1=C(O)C(=O)N(c2ccc(Br)cc2)C1c1ccccc1[N+](=O)[O-] (configuration not stated),inactive
9,COc1cc(OC)cc(C(=O)OCn2nnc3ccccc3c2=O)c1,inactive
10,Cc1c(C(=O)NCCSCc2ccccc2)cccc1[N+](=O)[O-],inactive
11,Cc1ccc(C(=O)CC(Nc2ccc(F)cc2)c2ccccc2)cc1 (configuration not stated),"inconclusive: 16.4 µM [activator, single point]"
12,COc1cc(S(=O)(=O)N2CCOCC2)cc(C(=O)c2nccn2C)c1OC,inactive
13,O=C(N/N=C/c1ccccn1)c1ccc2nc[nH]c2c1,"inconclusive: 13 µM [inhibitor, partial curve]"
14,COC(=O)c1ccc(/C=C2\N=C(SC)SC2=O)cc1,"inconclusive: 18.4 µM [activator, partial curve, poor fit]"
15,COc1cc(OC)cc(C(=O)NCC2CCCN(C(=O)c3csc(C(C)C)n3)C2)c1 (configuration not stated),"inconclusive: 0.73 µM [inhibitor, partial curve, poor fit]"
16,N#Cc1c(-c2ccco2)ccn(Cc2cccc(F)c2)c1=O,"inconclusive: 23.1 µM [activator, single point]"
17,O=C(CSc1nc(-c2ccccc2)cs1)Nc1nccs1,inactive
18,CCc1ccc(-c2cc(C(=O)Nc3c(C)n(C)n(-c4ccccc4)c3=O)c3ccccc3n2)s1,"inconclusive: 29.1 µM [inhibitor, single point]"
19,COc1ccccc1/C=C/C(=O)c1ccc(Cl)cc1,"inconclusive: 29.1 µM [activator, single point]"
20,COC(=O)c1ccc(NC(=O)CSc2ccccn2)cc1,inactive
21,CCCCn1c(NC(=S)Nc2ccccc2)nc2ccccc21,"inconclusive: 18.4 µM [activator, single point]"
22,Cc1oc(-c2cccc3ccccc23)nc1CN1CCN(c2ncnc3ccccc23)CC1,active: 14.6 µM
23,CCc1[nH]c(=O)[nH]c1C(C)S(=O)(=O)c1ccc(C)cc1 (configuration not stated),inactive
24,CCc1ccc(NC(=O)c2ccc(-n3cncn3)c([N+](=O)[O-])c2)cc1,"inconclusive: 22.4 µM [inhibitor, single point]"

row,Compound,Potency
1,COC(=O)c1ccc(C(=O)NC2CCCc3c2cnn3-c2ccccc2F)nc1 (configuration not stated),"inconclusive: 3.66 µM [inhibitor, partial curve]"
2,CC1(C)CC(=O)C2=C(C1)N(N1CCOCC1)C(N)=C(C#N)C2c1cccnc1 (configuration not stated),"inconclusive: 20.6 µM [activator, partial curve, poor fit]"
3,Nc1c2c(nc3sc4c(c13)CCCC4)-c1ccccc1CC2,"inconclusive: 1.03 µM [activator, full curve]"
4,CC(C)(C)OC(=O)CNC(=O)c1nc[nH]c1C(=O)NCc1ccccc1,inactive
5,C[C@@H]1CN([C@H](C)CO)C(=O)c2cc(NS(=O)(=O)c3cn(C)cn3)ccc2O[C@H]1CN(C)C(=O)Nc1ccccc1,"inconclusive: 20.6 µM [activator, partial curve, poor fit]"
6,O=c1c(-c2ccc(Cl)cc2)c[nH]n1-c1ccccc1,"inconclusive: 20.6 µM [activator, partial curve]"
7,Nc1ccc2nc(N3CCOCC3)sc2c1,"inconclusive: 8.2 µM [activator, partial curve]"
8,O=C(Nc1nccs1)C1=COCCO1,"inconclusive: 23.1 µM [activator, single point]"
9,COc1ccc(CC(=O)NCc2cccs2)cc1,inactive
10,Cc1ccc(C(=O)Nc2nc(C)c(C(=O)Nc3ccc4c(c3)CCC4)s2)cc1,"inconclusive: 18.4 µM [activator, partial curve]"
11,COc1cc(OC)cc(C(=O)NCCN2C(=O)S/C(=C\c3cccs3)C2=O)c1,"inconclusive: 20.6 µM [inhibitor, single point]"
12,O=C(Nc1ccc(N2CCCC2)cc1)c1ccc(Br)o1,"inconclusive: 0.517 µM [activator, partial curve, poor fit]"
13,COc1cccc(/C=C/C(=O)Nc2ccc3c(c2)OCCO3)c1OC,"inconclusive: 1.3 µM [activator, partial curve]"
14,C=CCNC1=C(Cl)C(=O)N(Cc2ccccc2)C1=O,inactive
15,Cc1ccc(C(=O)N2CCN(c3ccc(C(F)(F)F)cn3)CC2)c(C)c1,inactive
16,Cc1nc2nc(N)nn2c(C)c1C/C=C/c1ccccc1,"inconclusive: 14.6 µM [activator, partial curve, poor fit]"
17,Cc1ccc(C)c(Nc2c([N+](=O)[O-])c(=O)oc3ccccc23)c1,active: 20.6 µM
18,Cc1ccccc1N=CC1=C(O)c2ccccc2C1=O,"inconclusive: 1.16 µM [activator, partial curve]"
19,COc1cc(C(=O)NCCSc2ccc(Br)cc2)cc(OC)c1OC,"inconclusive: 29.1 µM [inhibitor, single point]"
20,CC1CCN(Cc2c(C(=O)N3CCc4ccccc4C3)nc3ccc(Cl)cn23)CC1,inactive
21,Oc1cccc2ccc(/C=C/c3ccccc3Cl)nc12,"inconclusive: 14.6 µM [activator, partial curve]"
22,CCCSc1nsc(NC(=O)Nc2ccc(F)cc2F)n1,"inconclusive: 29.1 µM [activator, single point]"
23,CCC(=O)Nc1cccc(-c2nnc(-c3cccc(NC(=O)CC)c3)o2)c1,"inconclusive: 29.1 µM [inhibitor, single point]"
24,Cc1ccc(NC(=O)c2ncn(CC(=O)NCc3ccc4[nH]ccc4c3)n2)cc1C,"inconclusive: 13 µM [activator, partial curve]"
